± gives the standard deviation of the averaged measurements. The entries are a selection whose mix differs from that of the whole data set.
What was measured:
Test in all cases: NP40-soluble protein abundance relative to vehicle (solubility fold change) (ratio); higher = more soluble protein in presence of ATP
[1] = target: T1, H3BNT4 and related entries (UniProt Q99547)
T1 sequence (whole entry): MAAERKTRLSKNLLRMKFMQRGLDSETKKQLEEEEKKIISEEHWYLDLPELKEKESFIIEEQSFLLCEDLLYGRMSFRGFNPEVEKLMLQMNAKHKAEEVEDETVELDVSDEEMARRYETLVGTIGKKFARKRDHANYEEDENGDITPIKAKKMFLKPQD
Method in brief: (§1)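 Jurkat crude lysate prepared with a Dounce homogeniser was treated at eight concentrations spanning 0.1 to 10 mM, 10 min at room temperature then 3 min at 37 °C. Solubilisation with 0.8% NP40 and benzonase and ultracentrifugation preceded TMT labelling of the supernatant for LC-MS/MS. Fold change against the detergent-processed vehicle was determined per replicate from vsn-normalised intensities, across three independent experiments.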

[2] = target: T2, H7BY55 and related entries (UniProt P08174)
T2 sequence (whole entry): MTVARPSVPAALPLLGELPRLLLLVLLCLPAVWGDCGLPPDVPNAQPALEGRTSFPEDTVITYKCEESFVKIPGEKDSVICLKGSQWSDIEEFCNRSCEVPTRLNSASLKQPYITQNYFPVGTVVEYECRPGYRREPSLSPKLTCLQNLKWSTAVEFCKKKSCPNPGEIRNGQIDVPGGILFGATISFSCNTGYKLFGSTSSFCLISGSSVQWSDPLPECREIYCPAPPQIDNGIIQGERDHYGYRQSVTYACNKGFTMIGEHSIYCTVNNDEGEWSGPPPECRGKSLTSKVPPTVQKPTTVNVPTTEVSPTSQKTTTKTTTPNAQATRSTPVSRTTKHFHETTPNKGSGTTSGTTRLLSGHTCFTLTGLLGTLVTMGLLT
Method in brief: as §1

[3] = target: T3, H7C561 and related entries (UniProt Q15637)
T3 sequence (whole entry): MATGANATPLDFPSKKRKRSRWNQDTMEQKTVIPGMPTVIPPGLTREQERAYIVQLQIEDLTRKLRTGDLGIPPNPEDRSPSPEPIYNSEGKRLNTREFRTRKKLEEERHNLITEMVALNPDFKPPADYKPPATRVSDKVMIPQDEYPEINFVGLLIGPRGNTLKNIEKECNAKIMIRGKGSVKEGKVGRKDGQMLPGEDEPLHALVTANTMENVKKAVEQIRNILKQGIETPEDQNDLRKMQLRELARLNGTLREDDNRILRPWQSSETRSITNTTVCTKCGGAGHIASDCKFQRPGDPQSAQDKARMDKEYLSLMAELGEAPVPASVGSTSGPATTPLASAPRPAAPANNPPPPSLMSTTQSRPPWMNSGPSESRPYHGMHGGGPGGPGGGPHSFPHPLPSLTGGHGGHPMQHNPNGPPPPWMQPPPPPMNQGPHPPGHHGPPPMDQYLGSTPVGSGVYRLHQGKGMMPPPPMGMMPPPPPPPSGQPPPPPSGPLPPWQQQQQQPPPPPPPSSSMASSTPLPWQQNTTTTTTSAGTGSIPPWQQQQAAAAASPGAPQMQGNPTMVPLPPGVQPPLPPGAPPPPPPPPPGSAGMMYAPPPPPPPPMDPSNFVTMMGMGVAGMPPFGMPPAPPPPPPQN
Method in brief: as §1

[4] = target: T4, J3KPD3 and related entries (UniProt Q9Y580)
T4 sequence (whole entry): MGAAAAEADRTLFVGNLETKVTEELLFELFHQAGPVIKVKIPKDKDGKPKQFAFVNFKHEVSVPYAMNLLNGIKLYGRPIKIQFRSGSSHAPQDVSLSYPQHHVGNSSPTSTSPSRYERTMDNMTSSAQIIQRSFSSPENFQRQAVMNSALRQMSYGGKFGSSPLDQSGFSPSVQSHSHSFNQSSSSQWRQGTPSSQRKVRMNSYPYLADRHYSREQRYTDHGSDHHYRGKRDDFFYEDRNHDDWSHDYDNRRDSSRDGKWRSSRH
Method in brief: as §1

[5] = target: T5, J3KPT4 and related entries (UniProt Q9H4I3)
T5 sequence (whole entry): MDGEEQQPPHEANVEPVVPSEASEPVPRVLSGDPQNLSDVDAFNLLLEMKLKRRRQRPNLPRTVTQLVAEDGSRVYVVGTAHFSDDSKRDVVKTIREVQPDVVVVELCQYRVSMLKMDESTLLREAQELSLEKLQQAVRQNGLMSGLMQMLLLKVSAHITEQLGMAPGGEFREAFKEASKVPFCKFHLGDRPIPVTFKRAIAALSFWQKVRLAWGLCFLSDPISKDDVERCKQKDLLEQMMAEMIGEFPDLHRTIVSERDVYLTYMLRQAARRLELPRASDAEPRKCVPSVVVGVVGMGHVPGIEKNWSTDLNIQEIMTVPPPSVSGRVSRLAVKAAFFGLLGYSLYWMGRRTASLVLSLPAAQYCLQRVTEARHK
Method in brief: as §1

[6] = target: T6, J3KSW2 and related entries (UniProt Q9UNA4)
T6 sequence (whole entry): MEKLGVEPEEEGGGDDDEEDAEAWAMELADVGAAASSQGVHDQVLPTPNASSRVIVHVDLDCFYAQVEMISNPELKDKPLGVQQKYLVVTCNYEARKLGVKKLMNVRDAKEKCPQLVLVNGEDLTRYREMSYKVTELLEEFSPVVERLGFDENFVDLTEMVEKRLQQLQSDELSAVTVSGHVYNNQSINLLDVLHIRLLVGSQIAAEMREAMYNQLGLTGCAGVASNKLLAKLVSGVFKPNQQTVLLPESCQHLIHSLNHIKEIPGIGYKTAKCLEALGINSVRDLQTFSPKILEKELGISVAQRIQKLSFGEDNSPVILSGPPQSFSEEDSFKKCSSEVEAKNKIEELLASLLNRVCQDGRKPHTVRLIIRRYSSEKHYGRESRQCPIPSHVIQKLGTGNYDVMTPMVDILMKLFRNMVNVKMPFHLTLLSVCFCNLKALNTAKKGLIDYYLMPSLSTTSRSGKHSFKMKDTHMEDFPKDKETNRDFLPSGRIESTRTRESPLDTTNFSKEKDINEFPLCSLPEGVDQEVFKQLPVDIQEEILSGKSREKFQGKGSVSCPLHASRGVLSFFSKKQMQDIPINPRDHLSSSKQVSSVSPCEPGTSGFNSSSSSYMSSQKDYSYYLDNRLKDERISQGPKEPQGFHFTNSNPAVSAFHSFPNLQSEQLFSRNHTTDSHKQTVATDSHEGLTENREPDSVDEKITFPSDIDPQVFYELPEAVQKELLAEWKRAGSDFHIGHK
Method in brief: as §1

[7] = target: T7, J3KSZ8 and related entries (UniProt Q68DK7)
T7 sequence (whole entry): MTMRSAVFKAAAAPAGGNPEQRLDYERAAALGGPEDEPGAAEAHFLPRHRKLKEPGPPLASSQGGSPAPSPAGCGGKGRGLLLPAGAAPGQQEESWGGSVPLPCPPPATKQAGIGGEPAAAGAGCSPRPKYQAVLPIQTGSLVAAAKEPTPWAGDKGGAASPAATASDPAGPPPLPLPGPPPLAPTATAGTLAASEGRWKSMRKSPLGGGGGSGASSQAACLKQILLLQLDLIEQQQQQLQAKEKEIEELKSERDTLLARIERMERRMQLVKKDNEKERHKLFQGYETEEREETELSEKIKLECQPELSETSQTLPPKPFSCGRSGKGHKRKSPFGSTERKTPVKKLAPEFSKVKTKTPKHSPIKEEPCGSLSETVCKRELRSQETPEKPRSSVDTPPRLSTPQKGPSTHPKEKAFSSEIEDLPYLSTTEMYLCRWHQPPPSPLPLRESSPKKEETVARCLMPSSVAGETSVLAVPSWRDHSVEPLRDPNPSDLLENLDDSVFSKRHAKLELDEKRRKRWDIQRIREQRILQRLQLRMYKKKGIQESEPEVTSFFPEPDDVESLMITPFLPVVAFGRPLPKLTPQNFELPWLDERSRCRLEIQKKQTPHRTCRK
Method in brief: as §1

[8] = target: T8, M0QYA8 and related entries (UniProt Q8IV63)
T8 sequence (whole entry): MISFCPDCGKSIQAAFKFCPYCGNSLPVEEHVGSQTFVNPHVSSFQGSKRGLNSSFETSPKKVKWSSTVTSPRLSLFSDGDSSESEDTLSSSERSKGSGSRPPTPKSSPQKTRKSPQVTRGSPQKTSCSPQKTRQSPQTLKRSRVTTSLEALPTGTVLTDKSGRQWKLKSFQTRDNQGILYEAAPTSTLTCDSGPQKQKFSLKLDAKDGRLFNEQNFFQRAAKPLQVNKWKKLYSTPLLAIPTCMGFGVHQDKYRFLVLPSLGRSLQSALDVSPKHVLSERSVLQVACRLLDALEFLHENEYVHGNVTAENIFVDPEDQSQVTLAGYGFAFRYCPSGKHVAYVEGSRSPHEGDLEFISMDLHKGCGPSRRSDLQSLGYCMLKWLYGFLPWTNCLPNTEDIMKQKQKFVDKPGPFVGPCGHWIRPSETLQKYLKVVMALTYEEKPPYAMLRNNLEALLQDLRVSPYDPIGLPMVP
Method in brief: as §1

## Nc1ncnc2c1ncn2[C@@H]1O[C@H](COP(=O)(O)OP(=O)(O)OP(=O)(O)O)[C@@H](O)[C@H]1O [adenosine triphosphate]
[1]; concentration: 1mM
  NP40-soluble protein abundance: 1.05 ± 0.058
[1]; concentration: 2mM
  NP40-soluble protein abundance: 1.04 ± 0.11
[1]; concentration: 4mM
  NP40-soluble protein abundance: 1.13 ± 0.025
[1]; concentration: 6mM
  NP40-soluble protein abundance: 1.23 ± 0.045
[1]; concentration: 8mM
  NP40-soluble protein abundance: 1.21 ± 0.081
[1]; concentration: 10mM
  NP40-soluble protein abundance: 1.22 ± 0.022
[2]; concentration: 1mM
  NP40-soluble protein abundance: 0.94 ± 0.042
[2]; concentration: 2mM
  NP40-soluble protein abundance: 0.964 ± 0.058
[2]; concentration: 4mM
  NP40-soluble protein abundance: 0.904 ± 0.051
[2]; concentration: 6mM
  NP40-soluble protein abundance: 0.949 ± 0.035
[2]; concentration: 8mM
  NP40-soluble protein abundance: 0.926 ± 0.062
[2]; concentration: 10mM
  NP40-soluble protein abundance: 0.92 ± 0.078
[3]; concentration: 1mM
  NP40-soluble protein abundance: 0.995 ± 0.068
[3]; concentration: 2mM
  NP40-soluble protein abundance: 0.9763 ± 0.0059
[3]; concentration: 4mM
  NP40-soluble protein abundance: 0.963 ± 0.034
[3]; concentration: 6mM
  NP40-soluble protein abundance: 1.02 ± 0.033
[3]; concentration: 8mM
  NP40-soluble protein abundance: 0.969 ± 0.026
[3]; concentration: 10mM
  NP40-soluble protein abundance: 0.947 ± 0.04
[4]; concentration: 1mM
  NP40-soluble protein abundance: 0.93 ± 0.044
[4]; concentration: 2mM
  NP40-soluble protein abundance: 0.903 ± 0.04
[4]; concentration: 4mM
  NP40-soluble protein abundance: 0.943 ± 0.023
[4]; concentration: 6mM
  NP40-soluble protein abundance: 0.958 ± 0.1
[4]; concentration: 8mM
  NP40-soluble protein abundance: 0.98 ± 0.049
[4]; concentration: 10mM
  NP40-soluble protein abundance: 1.03 ± 0.098
[5]; concentration: 1mM
  NP40-soluble protein abundance: 1.02 ± 0.078
[5]; concentration: 2mM
  NP40-soluble protein abundance: 0.971 ± 0.045
[5]; concentration: 4mM
  NP40-soluble protein abundance: 0.976 ± 0.043
[5]; concentration: 6mM
  NP40-soluble protein abundance: 0.948 ± 0.096
[5]; concentration: 8mM
  NP40-soluble protein abundance: 0.986 ± 0.042
[5]; concentration: 10mM
  NP40-soluble protein abundance: 0.997 ± 0.043
[6]; concentration: 1mM
  NP40-soluble protein abundance: 1.02 ± 0.1
[6]; concentration: 2mM
  NP40-soluble protein abundance: 0.948 ± 0.083
[6]; concentration: 4mM
  NP40-soluble protein abundance: 1.02 ± 0.15
[6]; concentration: 6mM
  NP40-soluble protein abundance: 0.995 ± 0.11
[6]; concentration: 8mM
  NP40-soluble protein abundance: 0.977 ± 0.15
[6]; concentration: 10mM
  NP40-soluble protein abundance: 0.957 ± 0.2
[7]; concentration: 1mM
  NP40-soluble protein abundance: 1.23 ± 0.18
[7]; concentration: 2mM
  NP40-soluble protein abundance: 1.27 ± 0.2
[7]; concentration: 4mM
  NP40-soluble protein abundance: 1.33 ± 0.12
[7]; concentration: 6mM
  NP40-soluble protein abundance: 1.39 ± 0.23
[7]; concentration: 8mM
  NP40-soluble protein abundance: 1.32 ± 0.12
[7]; concentration: 10mM
  NP40-soluble protein abundance: 1.38 ± 0.16
[8]; concentration: 1mM
  NP40-soluble protein abundance: 1.38 ± 0.086
[8]; concentration: 2mM
  NP40-soluble protein abundance: 1.44 ± 0.11
[8]; concentration: 4mM
  NP40-soluble protein abundance: 1.49 ± 0.15
[8]; concentration: 6mM
  NP40-soluble protein abundance: 1.49 ± 0.21
[8]; concentration: 8mM
  NP40-soluble protein abundance: 1.47 ± 0.21
[8]; concentration: 10mM
  NP40-soluble protein abundance: 1.55 ± 0.18

— the supplement of paper PMC6411743
